# Laboratory results: PubChem BioAssay AID1347076 (National Center for Advancing Translational Sciences (NCATS), 2019)
# In all, about 400,000 compounds went through this assay and about 13,000 (3.2%) were called active. The inconclusive results got no clear call from the source; some entries with a clear call stand among them for comparison. Calls come from the whole dose curve; as a rule, active = well fitted cell-killing curve with a large enough effect; inconclusive = small, poorly fitted or top-dose-only effect, or effect the other way; inactive = flat fitted curve, though single readings scatter. Potencies of inconclusive entries are doubtful fits and often do not repeat.
# Assay: qHTS assay for MDR1-selective chemotherapeutics: Primary screen using the drug-selected MDR subline cells KB-V1; note: nearly all actives have a fitted effect of over 60% in size
# Conditions: KB-V1 MDR cells viability, CellTiter-Glo, 72 h; series mostly up to 46.1 µM
# Procedure, shortened: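 KB-V1, DMEM (no phenol red) + 10% FBS; cpd pin-transferred, titration series; 72 h, 37 degrees C; CellTiter-Glo, luminescence. Data normalized, curve-fit.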
# Potency is the fitted concentration of half-maximal effect.
row,SMILES,Potency
1,Fc1ccc(-c2nnc(CN3CCN(c4ncc(C(F)(F)F)cc4Cl)CC3)o2)cc1,"inconclusive: 16.4 µM [cytotoxic, single point]"
2,COc1ccc(/C=C2\SC(=S)N(CCCC(=O)Nc3ccccn3)C2=O)cc1OC,"inconclusive: 11.6 µM [cytotoxic, partial curve]"
3,CS(=O)(=O)N(CC(=O)Nc1ccccc1Sc1ccccc1)c1ccc(F)cc1,"inconclusive: 23.1 µM [cytotoxic, partial curve]"
4,CC(=O)N(c1ccc2oc(=O)sc2c1)S(=O)(=O)c1cccc2cccnc12,"inconclusive: 3.26 µM [cytotoxic, partial curve, poor fit]"
5,Cn1nc(C(C)(C)C)cc1C(=O)N1CCCCC1c1cc(C(=O)N2CCOCC2)no1 (stereo not drawn),"inconclusive: 20.6 µM [cytotoxic, partial curve]"
6,COc1ccc(N2CCN(S(=O)(=O)CCNC(=O)C(C)Oc3ccccc3)CC2)cc1 (stereo not drawn),"inconclusive: 18.4 µM [cytotoxic, single point]"
7,CC(=O)c1ccc(NS(=O)(=O)c2ccc(C)cc2)cc1,inactive
8,O=C(NCCCSc1ccccc1)c1cc(Cl)ccc1O,"inconclusive: 29.1 µM [cytotoxic, single point]"
9,CC1(C(=O)Nc2cccc(Oc3ccccc3)c2)CCN1Cc1cc2ccccc2o1 (stereo not drawn),inactive
10,CCOc1ccc(N2CC(C(=O)Nc3ccc(OC)c(S(=O)(=O)N4CCCCC4)c3)CC2=O)cc1 (stereo not drawn),"inconclusive: 23.1 µM [cytotoxic, partial curve]"
11,CN(C)/N=C/c1ccc(OS(=O)(=O)c2ccccc2)cc1,inactive
12,COc1ccc(Cl)cc1NC(=O)c1oc(C)nc1C,"inconclusive: 11.6 µM [cytotoxic, partial curve]"
13,COc1ccc(Cl)cc1NC(=S)NCCc1c[nH]c2ccccc12,"inconclusive: 20.6 µM [cytotoxic, single point]"
14,O=S(=O)(c1ccc2c(c1)CCCN2)N1CCCC2CCCCC21 (stereo not drawn),"inconclusive: 23.1 µM [cytotoxic, single point]"
15,C=CCOc1ccc(C2C(C(=O)c3cccs3)=C(O)C(=O)N2c2nnc(C)s2)cc1 (stereo not drawn),"inconclusive: 18.4 µM [rising, partial curve, poor fit]"
16,c1ccc(-c2cc3c(N4CCOCC4)ncnc3s2)cc1,"inconclusive: 29.1 µM [cytotoxic, single point]"
17,COc1ccc2nc(SCC(=O)Nc3cc(C)on3)c(C#N)cc2c1,"inconclusive: 25.9 µM [rising, single point]"
18,N#CC1=C(N)OC2=C(CCc3ccccc32)C1c1ccccc1 (stereo not drawn),active: 1.46 µM

# Another view of two compounds above.
row	SMILES	Potency
14	O=S(=O)(c1ccc2c(c1)CCCN2)N1CCCC2CCCCC21 (stereo not drawn)	inconclusive: 23.1 µM [cytotoxic, single point]
15	C=CCOc1ccc(C2C(C(=O)c3cccs3)=C(O)C(=O)N2c2nnc(C)s2)cc1 (stereo not drawn)	inconclusive: 18.4 µM [rising, partial curve, poor fit]
